The source of these data is the supplement of paper PMC11237882.

This is one part of the list. Values are worked out from sequencing counts and are noisy.

T1: Homer1 EVH1 domain
T1 chain: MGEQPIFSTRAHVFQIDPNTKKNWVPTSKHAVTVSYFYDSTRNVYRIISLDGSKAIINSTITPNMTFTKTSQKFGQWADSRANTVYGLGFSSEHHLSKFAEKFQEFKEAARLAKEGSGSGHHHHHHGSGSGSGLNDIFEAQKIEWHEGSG

The test has as its target T1, Homer1 EVH1 domain. The test is described as follows: enrichment score (AUC of log2 frequency ratio across FACS sorting rounds) (log2 AUC); higher = stronger enrichment for Homer1 EVH1 binding.
Take GVCLLWVAFFECFVIAWIYGGDNLYDGIEDMIGYRP: the enrichment score stood at 1.28.

With QEPLTLSWGHLPSRPSRSWASLLAWLSWLSWLSLMS, the enrichment score was 2.75.

For LMPAKFVRCAYVIILMAIYWCTEVIPLAVTSLMPVL, the enrichment score was -1.54.

As for RLKTHSGPNATPEDKQLAALCYCCLALLYWRMFRLK, the enrichment score worked out at 2.57.

Turning to ELDMENEFLLPPVFGEEYEEQPRPRSKKKGAKRKAV, the enrichment score was -0.454.

For MSALWLLLGLLALMDLSESSNWGCYGNIQSLDTPGA, the enrichment score came out at 0.551.

As to ITAWYIGFLTLILSSFLVYLVEKDVPEVDAQGEEMK, the enrichment score amounted to 3.79.

KMALETHFWTWINHLVTWGSIIFYFVFSLFYGGILW: the enrichment score was 3.4.

For the molecule VVPLLEGLRAKWNKVLWSHGNSRIQFCGRNALAMPV, the enrichment score is -2.47.

In the case of MAILLACFTAVLAFICLQFWCVRCHEPRWSYRAGHM, the enrichment score was -0.731.

For MRPGAPGPLWPLPWGALAWAVGFVSSMGSGNPAPGG, the enrichment score was determined as 1.43.

With GTPTYVAPEIIAETGYGLKVDIWAAGVITYILLCGF, the enrichment score is -2.23.

For FLKNSSKQEKARASAETFRSAKYHNALLCLLFLFFF, the enrichment score is 3.17.

For the molecule KHDHIVSTIYSTFGAFYIPLALILILYYKIYRAAKT, the enrichment score was found to be 4.64.

Take PLLDLTNSIITAVFLSVVAILAMQEKKRRHLLYVGG: the enrichment score is 2.76.

In the case of MARHGCLGLGLFCCVLFAATVGPQPTPSIPGAPATT, the enrichment score was 1.52.

Take MGSLFPLSLLFFLAAAYPGVGSALGRRTKRAQSPKG: the enrichment score came out at 3.46.

Turning to RLSRIAFPLLFGIFNLVYWATYLNREPQLKAPTPHQ, the enrichment score was 2.04.

In the case of IILSLFVMGGVYFVCQRVVCQRYAGANGPFPHEYVS, the enrichment score was -0.729.

For the molecule KIKQLNLAMINYVLVVYGLAISLLGIGQPEELSEAE, the enrichment score turned out to be 2.34.

Turning to PIIYYSVCYSIVSLMYFIGFLLGDSTACNKADAKLE, the enrichment score stood at 3.44.

As for WVFGSGLCKVAGALFNINFYAGALLLACISFDRYLN, the enrichment score is 1.97.

In the case of TEEHFPEPDNAIFTQRVITGTMALLFSFFFIIFIVF, the enrichment score is -0.0106.

For EQLALRNEEAENESSKLRRENKRLKKKNEQLCQDII, the enrichment score is -0.0992.

With TKTLLLPVVLVVFVAIVRKIISDMWGVLAKQQTHVR, the enrichment score was -1.95.

Take GALCLMVDFILIAVSYTLILKTVPGIASKKEELKAL: the enrichment score is -1.91.

Regarding MRLRNGTVATALAFITSFLTLSWYTTWQNGKEKLIA, the enrichment score was found to be 1.03.

With MQRLMMLLATSGACLGLLAVAAVAAAGANPAQRDTH, the enrichment score was 5.22.
